Test results taken from publication doi:10.1101/2025.06.26.659600.
These are yes or no findings as the source states them, for the method shown. In cells and extracts the contact can be indirect. Some results given as binding are weak or reduced against the parent protein; the word gives no strength.

By UniProt entry, the sequences of proteins in these tests, tags left out. Where a name states a change or a piece, a line headed by the entry shows the natural chain unless it says otherwise. Residues count along the entry.
UniProt O00459, whole entry: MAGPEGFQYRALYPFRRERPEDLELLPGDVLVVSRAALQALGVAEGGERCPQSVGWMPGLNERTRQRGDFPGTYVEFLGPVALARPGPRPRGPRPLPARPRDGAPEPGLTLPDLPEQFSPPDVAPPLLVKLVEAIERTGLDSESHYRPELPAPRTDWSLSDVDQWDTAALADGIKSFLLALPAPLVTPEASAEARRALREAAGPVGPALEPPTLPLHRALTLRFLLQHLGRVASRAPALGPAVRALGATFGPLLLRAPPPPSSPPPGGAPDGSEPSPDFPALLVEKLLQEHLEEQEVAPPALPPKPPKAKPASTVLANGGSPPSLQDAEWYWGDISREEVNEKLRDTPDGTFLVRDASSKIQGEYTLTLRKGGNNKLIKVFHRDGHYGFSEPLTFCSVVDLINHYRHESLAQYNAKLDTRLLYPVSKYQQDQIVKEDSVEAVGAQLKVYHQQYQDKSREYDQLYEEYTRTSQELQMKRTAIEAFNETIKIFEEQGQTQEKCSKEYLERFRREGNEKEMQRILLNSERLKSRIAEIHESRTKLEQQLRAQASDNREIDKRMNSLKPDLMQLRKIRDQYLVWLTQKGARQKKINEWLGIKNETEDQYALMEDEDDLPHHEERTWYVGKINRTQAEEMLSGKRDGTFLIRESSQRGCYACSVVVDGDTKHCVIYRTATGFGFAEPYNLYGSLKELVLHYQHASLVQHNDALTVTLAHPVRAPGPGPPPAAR
UniProt P42338, whole entry: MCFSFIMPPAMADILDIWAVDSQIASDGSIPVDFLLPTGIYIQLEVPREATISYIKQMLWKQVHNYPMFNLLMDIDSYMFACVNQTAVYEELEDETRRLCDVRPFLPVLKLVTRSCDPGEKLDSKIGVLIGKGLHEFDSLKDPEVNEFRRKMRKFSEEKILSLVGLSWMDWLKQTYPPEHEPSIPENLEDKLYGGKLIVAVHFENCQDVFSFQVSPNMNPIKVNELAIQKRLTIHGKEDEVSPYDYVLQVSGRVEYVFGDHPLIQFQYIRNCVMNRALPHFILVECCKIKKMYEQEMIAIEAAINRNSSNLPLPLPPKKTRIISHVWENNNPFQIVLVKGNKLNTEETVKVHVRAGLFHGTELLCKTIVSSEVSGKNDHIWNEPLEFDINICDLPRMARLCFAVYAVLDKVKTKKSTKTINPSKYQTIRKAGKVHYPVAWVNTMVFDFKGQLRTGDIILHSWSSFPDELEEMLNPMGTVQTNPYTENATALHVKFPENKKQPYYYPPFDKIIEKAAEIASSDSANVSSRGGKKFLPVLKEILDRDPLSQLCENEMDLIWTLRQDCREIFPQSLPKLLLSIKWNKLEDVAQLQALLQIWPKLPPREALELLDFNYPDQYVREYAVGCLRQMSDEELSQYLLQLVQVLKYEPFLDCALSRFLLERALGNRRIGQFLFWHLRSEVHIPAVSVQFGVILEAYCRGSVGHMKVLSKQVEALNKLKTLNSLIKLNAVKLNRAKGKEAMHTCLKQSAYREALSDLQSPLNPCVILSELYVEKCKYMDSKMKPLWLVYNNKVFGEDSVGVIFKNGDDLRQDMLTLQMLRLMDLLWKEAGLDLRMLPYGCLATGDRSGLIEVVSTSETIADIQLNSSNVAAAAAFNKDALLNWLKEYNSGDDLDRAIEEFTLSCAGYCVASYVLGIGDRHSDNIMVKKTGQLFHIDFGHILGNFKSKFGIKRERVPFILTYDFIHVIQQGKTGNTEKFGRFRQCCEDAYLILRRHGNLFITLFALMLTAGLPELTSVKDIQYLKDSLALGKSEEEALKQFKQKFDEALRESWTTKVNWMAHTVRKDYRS
UniProt P42338, 41-118: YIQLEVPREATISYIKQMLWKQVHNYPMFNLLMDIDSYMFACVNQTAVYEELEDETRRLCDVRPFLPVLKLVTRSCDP
UniProt P42338, 119-1070, stated change not applied: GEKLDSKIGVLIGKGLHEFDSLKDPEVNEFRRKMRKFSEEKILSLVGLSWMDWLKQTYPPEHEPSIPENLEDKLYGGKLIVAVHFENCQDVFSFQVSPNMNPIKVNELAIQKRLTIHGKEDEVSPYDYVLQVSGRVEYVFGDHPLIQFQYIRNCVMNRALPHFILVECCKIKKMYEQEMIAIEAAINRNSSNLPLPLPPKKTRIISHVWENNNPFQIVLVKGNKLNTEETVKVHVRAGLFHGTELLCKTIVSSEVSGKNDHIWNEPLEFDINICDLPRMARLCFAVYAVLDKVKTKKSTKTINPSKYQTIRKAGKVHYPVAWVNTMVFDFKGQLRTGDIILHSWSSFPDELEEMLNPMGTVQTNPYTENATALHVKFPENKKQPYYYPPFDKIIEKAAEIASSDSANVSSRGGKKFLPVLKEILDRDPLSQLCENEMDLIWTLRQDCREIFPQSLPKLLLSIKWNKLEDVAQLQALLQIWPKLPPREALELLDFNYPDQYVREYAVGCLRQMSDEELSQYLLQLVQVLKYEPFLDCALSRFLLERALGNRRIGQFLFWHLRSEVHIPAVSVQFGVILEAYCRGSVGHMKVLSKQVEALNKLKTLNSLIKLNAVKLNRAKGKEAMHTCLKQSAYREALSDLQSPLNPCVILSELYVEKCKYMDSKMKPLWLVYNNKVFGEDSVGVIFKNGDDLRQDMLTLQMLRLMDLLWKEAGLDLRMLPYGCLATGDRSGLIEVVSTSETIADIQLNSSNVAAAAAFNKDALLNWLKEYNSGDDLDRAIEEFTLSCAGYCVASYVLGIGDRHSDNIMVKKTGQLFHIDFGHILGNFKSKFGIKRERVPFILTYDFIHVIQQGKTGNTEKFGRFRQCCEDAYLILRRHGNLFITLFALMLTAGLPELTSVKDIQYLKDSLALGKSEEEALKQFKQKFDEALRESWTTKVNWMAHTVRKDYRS
UniProt P42336, 32-108: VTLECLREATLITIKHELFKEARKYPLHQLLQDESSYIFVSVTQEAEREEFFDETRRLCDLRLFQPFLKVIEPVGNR
UniProt P42336, 109-1068, stated change not applied: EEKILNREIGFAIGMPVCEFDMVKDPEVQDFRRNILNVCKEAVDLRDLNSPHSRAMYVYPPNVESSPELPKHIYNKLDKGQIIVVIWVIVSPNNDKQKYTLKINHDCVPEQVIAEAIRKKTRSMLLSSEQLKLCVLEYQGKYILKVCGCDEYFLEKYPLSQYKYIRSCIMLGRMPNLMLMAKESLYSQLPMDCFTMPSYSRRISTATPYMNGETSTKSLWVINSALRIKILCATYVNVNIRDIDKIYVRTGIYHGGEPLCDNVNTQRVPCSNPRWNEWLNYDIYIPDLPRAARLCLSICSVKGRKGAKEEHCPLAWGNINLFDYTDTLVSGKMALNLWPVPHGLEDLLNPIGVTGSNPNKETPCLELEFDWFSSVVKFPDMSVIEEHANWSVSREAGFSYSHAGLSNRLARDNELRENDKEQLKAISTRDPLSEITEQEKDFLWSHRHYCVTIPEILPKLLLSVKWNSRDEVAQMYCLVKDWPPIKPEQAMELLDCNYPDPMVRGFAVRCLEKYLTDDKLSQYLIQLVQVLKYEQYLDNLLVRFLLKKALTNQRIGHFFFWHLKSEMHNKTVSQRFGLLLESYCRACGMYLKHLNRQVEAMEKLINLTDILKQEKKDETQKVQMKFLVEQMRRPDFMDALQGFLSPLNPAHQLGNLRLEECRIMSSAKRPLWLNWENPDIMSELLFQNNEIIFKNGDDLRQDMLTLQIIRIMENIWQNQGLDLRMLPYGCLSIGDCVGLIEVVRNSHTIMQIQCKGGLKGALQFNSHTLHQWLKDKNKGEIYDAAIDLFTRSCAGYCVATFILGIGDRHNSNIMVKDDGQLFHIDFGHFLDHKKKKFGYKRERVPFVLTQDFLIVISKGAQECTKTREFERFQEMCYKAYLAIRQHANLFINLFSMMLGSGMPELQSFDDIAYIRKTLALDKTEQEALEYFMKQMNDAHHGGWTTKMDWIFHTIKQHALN
UniProt O00329, 108-1044, stated change not applied: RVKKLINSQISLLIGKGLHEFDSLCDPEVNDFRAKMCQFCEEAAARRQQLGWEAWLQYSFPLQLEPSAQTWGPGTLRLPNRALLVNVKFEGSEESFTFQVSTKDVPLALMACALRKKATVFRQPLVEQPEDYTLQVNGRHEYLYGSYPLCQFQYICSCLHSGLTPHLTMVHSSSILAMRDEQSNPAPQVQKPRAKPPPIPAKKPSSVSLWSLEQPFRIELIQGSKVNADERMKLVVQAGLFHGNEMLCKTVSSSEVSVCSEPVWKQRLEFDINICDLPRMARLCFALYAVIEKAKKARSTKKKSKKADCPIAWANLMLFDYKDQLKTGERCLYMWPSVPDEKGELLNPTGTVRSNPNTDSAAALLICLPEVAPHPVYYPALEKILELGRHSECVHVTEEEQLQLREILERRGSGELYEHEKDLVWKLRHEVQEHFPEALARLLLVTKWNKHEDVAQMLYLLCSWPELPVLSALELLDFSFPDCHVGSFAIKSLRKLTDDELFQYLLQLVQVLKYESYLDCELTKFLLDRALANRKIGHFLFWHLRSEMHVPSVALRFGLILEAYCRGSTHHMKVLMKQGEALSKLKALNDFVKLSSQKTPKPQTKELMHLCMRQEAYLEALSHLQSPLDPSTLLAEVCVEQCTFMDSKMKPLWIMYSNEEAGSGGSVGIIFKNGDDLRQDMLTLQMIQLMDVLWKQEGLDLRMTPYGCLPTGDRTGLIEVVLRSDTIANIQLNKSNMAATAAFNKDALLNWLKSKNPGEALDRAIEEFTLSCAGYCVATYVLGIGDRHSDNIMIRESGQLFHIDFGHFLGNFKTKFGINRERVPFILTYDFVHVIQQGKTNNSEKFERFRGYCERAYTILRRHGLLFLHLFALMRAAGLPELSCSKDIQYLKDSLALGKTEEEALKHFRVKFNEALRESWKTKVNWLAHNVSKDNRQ
UniProt O00329, whole entry, looked up, stated change not applied: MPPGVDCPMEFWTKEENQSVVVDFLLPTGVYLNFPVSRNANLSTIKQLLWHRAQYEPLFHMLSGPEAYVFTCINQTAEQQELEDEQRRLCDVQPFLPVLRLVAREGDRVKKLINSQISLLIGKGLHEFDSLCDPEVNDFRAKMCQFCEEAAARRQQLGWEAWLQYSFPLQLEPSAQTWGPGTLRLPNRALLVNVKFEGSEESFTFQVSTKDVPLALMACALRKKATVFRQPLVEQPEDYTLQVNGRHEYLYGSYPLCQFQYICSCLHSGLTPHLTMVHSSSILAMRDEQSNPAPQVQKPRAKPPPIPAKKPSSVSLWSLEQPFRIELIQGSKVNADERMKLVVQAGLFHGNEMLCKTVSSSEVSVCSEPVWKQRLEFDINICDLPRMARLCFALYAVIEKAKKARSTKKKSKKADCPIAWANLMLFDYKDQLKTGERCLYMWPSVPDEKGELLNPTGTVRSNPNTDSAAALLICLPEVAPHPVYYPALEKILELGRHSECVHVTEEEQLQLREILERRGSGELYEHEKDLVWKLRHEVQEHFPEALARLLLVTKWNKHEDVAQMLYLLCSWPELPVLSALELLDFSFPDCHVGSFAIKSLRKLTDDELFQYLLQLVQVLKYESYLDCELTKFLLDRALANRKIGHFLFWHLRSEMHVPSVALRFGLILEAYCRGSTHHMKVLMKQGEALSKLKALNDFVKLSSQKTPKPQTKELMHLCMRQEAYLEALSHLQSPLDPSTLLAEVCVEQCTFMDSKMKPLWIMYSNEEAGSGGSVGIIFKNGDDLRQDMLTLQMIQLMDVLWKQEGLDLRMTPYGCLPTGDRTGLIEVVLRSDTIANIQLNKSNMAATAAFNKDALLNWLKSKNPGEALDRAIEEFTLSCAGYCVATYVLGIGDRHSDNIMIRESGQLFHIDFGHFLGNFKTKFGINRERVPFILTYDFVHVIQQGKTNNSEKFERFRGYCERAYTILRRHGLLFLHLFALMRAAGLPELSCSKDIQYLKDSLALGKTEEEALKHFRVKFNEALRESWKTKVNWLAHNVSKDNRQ

Molecular target: HA-tagged p85β (UniProt O00459)
Experiment: co-IP

Substance	binding
FLAG-tagged wild type p110β (from UniProt P42338 1-1070)	binds
p110α ABD [32–108] (from UniProt P42336 32-108) (domain or fragment)	binds
p110α ΔABD [109–1068] (from UniProt P42336 109-1068) (domain or fragment)	no binding
p110β ABD [41–118] (from UniProt P42338 41-118) (domain or fragment)	binds
p110β ABD [41–118] P/A (from UniProt P42338 41-118) (domain or fragment)	no binding
p110β P104A/P107A (from UniProt P42338 1-1070)	binds
p110β ΔABD [119–1070] (from UniProt P42338 119-1070) (domain or fragment)	no binding
p110δ P94A/P97A (from UniProt O00329 1-1044)	binds
p110δ ΔABD [108–1044] (from UniProt O00329 108-1044) (domain or fragment)	no binding
